Experimental data taken from PubChem BioAssay AID1347423 (Functional Genomics Laboratory (NCATS/FGL), 2020).
The campaign covered roughly 52,000 sequences. About 210 (0.4%) were called active.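 The calls were made as follows: active = gene whose silencing raises cell survival under the drug, median off-target-corrected z-score across its silencing RNAs 2 or more; inactive = the rest.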 The list shows a part of the results.

Test: Resistance to Poly (ADP-Ribose) Polymerase inhibitor: Gene Identification via Genome-wide siRNA Screen
Settings: mouse BRCA2 R2336H ES cells, olaparib, CellTiter-Glo viability; stronger effect = higher value
Source text: The role of Poly (ADP-Ribose) Polymerase (PARP) proteins in DNA repair has been elegantly utilized for the synthetic lethality-based treatment of BRCA-deficient tumors by PARP inhibitors. PARP inhibitors are now being used for treatment of BRCA-deficient breast and ovarian cancers. […] While several mechanisms of drug resistance have been identified, majority of these tumors develop drug resistance due to unknown causes. To identified novel regulators of chemo-resistance in BRCA2-mutated cells, we performed a genome wide siRNA library screen. We have found ES cells expressing a hypomorphic allele of BRCA2 to be hypersensitive to PAPP inhibitors (such as olaparib). We used ES cells expressing a mutant allele of BRCA2 that has a single amino acid substitution at position 2336 (arginine to histidine, R2336H). The screen was conducted using an Ambion (Thermo) Silencer Mouse Genome siRNA collection. The library targets 17,575 mouse genes with 3 siRNAs per gene. TET2 (E130014J05Rik) was identified as a top candidate.
Transfections were performed in 384 well plates (Corning 3707). Plates were coated with 0.1% gelatin in H2O overnight at ambient temperature. Gelatin solution was aspirated (BioTek EL406) and siRNAs were printed using a Bravo VPrep liquid handler integrated within a BioCel automation platform (Agilent). Cell viability was measured using CellTiter Glo (Promega). For transfections, […] of serum free media containing Lipofectamine RNAiMax […] was added to wells containing siRNA (0.8pmol). Lipid and siRNA were allowed to complex for 45 min at ambient temperature before addition of 1000 cells in DMEM, 30% FBS to yield final transfection mixtures containing 20 nM siRNA in DMEM, 15% FBS. PARPi (olaparib, AZD2281) was added 48 h post-transfection (500 nM) and viability (CellTiter Glo, Promega) was assayed 72 h later on a PerkinElmer Envision 2104 Multilabel plate reader. Ambion Silencer Select Negative Control #2 was incorporated on all screening plates (16 wells) and the median negative control value on each plate was used for normalization. An siRNA targeting Trp53 was used as a positive control. This control yielded a median protective effect of ~1.9 fold versus negative control throughout the screen. The median absolute deviation (MAD) based z-score was calculated for each siRNA. Genes were then ranked by taking the median value for all siRNAs tested against a given gene. Scores were also adjusted for seed-based off-target effects to help deprioritize likely false positives.

Sequence | z-score
GGUUUUUCUGAGUUUCCGUTT against Il4i1 | inactive: -0.196
GAAAUUAGAACAACUUUGGTT against 3830403N18Rik | inactive: -0.632
GGAAAAAGAAGCAAGAGCUTT against Mark3 | inactive: -0.025
GCAAAUUAAGAUGUGCUGATT against 2410004I17Rik | inactive: -1.36
CCAAUCUCCUGUUGUUAAATT against Mlf1 | inactive: 0.426
CGAUCAUCGCUCAGUAUAATT against Dlgh4 | inactive: -1.48
GGUUCAGAAUUUUUCCUUCTT against Olfr330 | inactive: 1.18
GGGAAAAAGCUGGGAAUAUTT against A930014K01Rik | inactive: -1.51
GGAGGAUCUUUCAAAGAGATT against Egfl8 | inactive: 1.87
GGGCAGUCAAAACGAAGAGTT against 2610206B13Rik | inactive: -1.48
GGAUUUAACAGAGAUACUGTT against H2-M11 | inactive: -0.405
GCAUAGACAUGGCUGCAUUTT against Arntl2 | inactive: -0.228
GCCAGAUGGUACGAAUGGCTT against Cdc5l | inactive: -0.638
GGCCAGAAGAACUAACAGUTT against Cept1 | inactive: -1.8
GGAUGACGUAAUUGACGGCTT against Cyp19a1 | inactive: 1.47
CCCAGAUGAACAAAUGACCTT against A630018P17Rik | inactive: 0.748
GGCAAAGAGAGAAUUAAAUTT against Ssx2ip | inactive: 0.322
GGGUCAUUUCCUAUGCAGGTT against Olfr866 | inactive: -0.404
GGUUCAACUCUGUGGUCACTT against C1qg | inactive: 0.585
GGAAAUUCACUUCAAUGAUTT against F730015K02Rik | inactive: 0.22
GCUGUAGUUUCAGUAGAUUTT against 3110001H15Rik | inactive: -0.926
GGGCUUCCUUAUGAAUUGATT against Rbmx2 | inactive: 0.821
GGAUUCCUUUCACAAGGCCTT against Rab17 | inactive: 1.63
GCGUGGGAUGCUCAUUUUATT against AY534253 | inactive: 0.914
GCUUUAGUUGCUUUCCCUGTT against Try10l | inactive: -1.24
GGCCUCACAGUGCUUUCUCTT against Olfr1232 | inactive: 0.68

Taken from above:
In z-score, CCCAGAUGAACAAAUGACCTT against A630018P17Rik has the entry inactive: 0.748
In z-score, GCCAGAUGGUACGAAUGGCTT against Cdc5l has the entry inactive: -0.638

Following part.

Sequence | z-score
GGCUAUCUUGCUGCUGGUUTT against V1rc16 | inactive: 1.44
GGAUAUACAUGGUCUGUUUTT against Birc1e | inactive: 0.0633
GCUCCUUUAGUCCUCACCATT against Mrpl10 | inactive: -2.8
GGAAUGGAGUCCUAGUCCATT against Spdef | inactive: -0.609
CCUGAUGGCUUUCAUCUUATT against Olfr815 | inactive: 0.494
GCCAGAACCUGACUUAUAUTT against Mia2 | inactive: -0.739
GGUGGAUUCUCCACUGUUUTT against Bmp2k | inactive: 0.0882
CGCGGCUUCUCAAAAAGCATT against Nkx6-2 | inactive: 0.836
CCAAGAGCCUUUCUAACAATT against Pnrc2 | inactive: -1.09
CCCUAUGGUUUAUAUGAAUTT against Ptk2b | inactive: 0.474
GCCGGUGACUGUUGUGUAUTT against Mppe1 | inactive: 0.286
AGUGGGCUUCAAAUUUCCATT against Aym1 | inactive: 0.293
GGAAGAGAAUGUGAAGCUGTT against Aqp3 | inactive: 2.32
GGGAGAACACAUCUACUGATT against Slamf6 | inactive: -0.624
GGAGGAUUCCCUUGUUCAATT against Rhbdl7 | inactive: -0.78
CCUUCUUGAAAACUCCAAGTT against Lum | inactive: 0.0735
GGGUAAAAAGUUUGACAAGTT against 2810485I05Rik | inactive: 1.19
GCAUUUUGACCCAAGUGUUTT against Foxq1 | inactive: 0.0651
CCCAGAACUAUUCAACACUTT against Sema4g | inactive: 1.4
GCUACGUCUUUUUUAGGGCTT against 1110025G12Rik | inactive: 1.69
GUGAAGGCCCAUGGCAAGATT against Hbb-b1 | inactive: -1.73
GGACCUAAAGAUAAUAAGUTT against Pex3 | inactive: -0.406
AUAAGGAUGUCCAUCUUGCTT against Olfr884 | inactive: -0.243
GGGAACACCCACGAACUCATT against Polrmt | inactive: 1.02
CGACGAAGUGGUCGGAAUUTT against Cryzl1 | inactive: -0.0662
GCAAAGCUUCUUUUGGGAUTT against Runx2 | inactive: 0.243
